The record followed here is PMC8024676.

The target in this experiment is Mauve-mCherry (Drosophila melanogaster). Briefly: co-IP; lysate of 0-3 h embryos co-expressing Mv-mCherry and Rab5-EYFP (20 mM Tris-HCl pH 8, 110 mM KCl, 5 mM MgCl2), split and given 100 uM GDP or GppNHp, RFP-Trap-MA beads, 4 °C.

These are yes or no findings as the source states them, for the method shown. Binding seen in cells or lysates may run through a third protein. Binding calls can cover weak binding; strength is not graded here. Sequences can lack the tags named with a protein.

B1: Rab5-EYFP (protein, UniProt Q9V3I2 1-219)
chain: MATTPRSGGASGTGTAQRPNGTSQNKSCQFKLVLLGESAVGKSSLVLRFVKGQFHEYQESTIGAAFLTQTICIEDTVVKFEIWDTAGQERYHSLAPMYYRGAQAAIVVYDIQNQDSFQRAKTWVKELHKQASPNIVIALAGNKADLSNIRVVEFDEAKQYAEENGLLFMETSAKTGMNVNDIFLAIAKKLPKNDGANNQGTSIRPTGTETNRPTNNCCK
Turning to B1, the binding result was “binds”.
